# Test results: patent US20250388687A1
# By UniProt entry, the sequences of proteins in these tests, tags left out. Residues count along the entry.
# UniProt P32927, residues 17-443: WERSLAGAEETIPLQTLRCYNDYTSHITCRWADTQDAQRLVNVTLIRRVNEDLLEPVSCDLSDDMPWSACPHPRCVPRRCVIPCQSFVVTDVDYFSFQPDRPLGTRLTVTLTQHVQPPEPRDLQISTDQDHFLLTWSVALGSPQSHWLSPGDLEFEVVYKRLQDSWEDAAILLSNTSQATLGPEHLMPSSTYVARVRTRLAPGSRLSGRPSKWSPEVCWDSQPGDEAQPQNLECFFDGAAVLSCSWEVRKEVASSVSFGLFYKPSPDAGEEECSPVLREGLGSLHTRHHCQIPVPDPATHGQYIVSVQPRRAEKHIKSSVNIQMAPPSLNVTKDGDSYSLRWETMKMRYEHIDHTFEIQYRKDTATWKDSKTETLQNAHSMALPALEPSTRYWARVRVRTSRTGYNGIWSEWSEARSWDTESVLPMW
# These are yes or no findings as the source states them, for the method shown. Some binding calls cover weakened binding; strength is not graded here.
# Biological target: hCD131-Fc (IME021) (human) (UniProt P32927)
# Assay: B cells sorted with labelled hEPOR-Fc and hCD131-Fc, then sequenced
row,binding,Binder
1,binds,"EPOR/CD131 binder, HC SEQ ID NO 1663 / LC SEQ ID NO 1799 (antibody, V domains shown) VH: EVQLVESGGGLVKPGGSLRLSCAASGFTFSTYSMNWVRQAPGKGLEWVSSISSSSTYIYYADSVKGRFTISRDNAKNSLYLQMNSLRAEDTAVYYCARGYNWNYVGDYWGQGTLVTVSS VL: QSALTQPASVSGSPGQSITISCTGTSSDVGGYNYVSWYQQHPGKAPKLMIYEVSNRPSGVSNRFSGSKSGNTASLTISGLQAEDEADYYCSSYTSSSTLVFGGGTKLTVL"
2,binds,"EPOR/CD131 binder, HC SEQ ID NO 1677 / LC SEQ ID NO 1813 (antibody, V domains shown) VH: EVQLVESGGGLVKPGGSLRLSCAASGFTFSSYSMNWVRQAPGKGLEWVSSISSSSSYIYYADSVKGRFTISRDNAKNSLYLQMNSLRAEDTAVYYCAREGNWGPYYFDYWGQGTLVTVSS VL: QSALTQPASVSGSPGQSITISCTGTSSDVGGYNYVSWYQQHPGKAPKLMIYDVSKRPSGVSNRFSGSKSGNTASLTISGLQAEDEADYYCCSYAGSSTVVFGGGTKLTVL"
3,binds,"EPOR/CD131 binder, HC SEQ ID NO 1667 / LC SEQ ID NO 1803 (antibody, V domains shown) VH: EVQLVESGGGLVQPGGSLRLSCAASGFTFNRYNMNWVRQAPGKGLEWVSYISSSSDTIYYADSVKGRFTISRDNAKNSLYLQMNSLRDEDTAMYYCARECYSSSWAFDYWGQGTLVTVSS VL: SSELTQDPAVSVALGQTVRITCQGDSLRSYYASWYQQKPGQAPVLVIYGKNNRPSGILDRFSGSSSGNTASLTITGAQAEDEGDYYCNSRDSSGWVFGGGTKLTVL"
4,binds,"EPOR/CD131 binder, HC SEQ ID NO 1695 / LC SEQ ID NO 1831 (antibody, V domains shown) VH: QVQLVQSGAEVKKPGASVKVSCKASGYTFTSYGITWVRQAPGQGLEWMGWISAYNGNTHYAQKLQGRVTMTTDTSTSTAYMDLRSLRSDDTAVYYCARTIFGVVNNWFDPWGQGTLVTVSS VL: QSVLSQPPSVSEAPRQRVTISCSGSSSNIGYNAVNWYQQLPGKAPKLLISHDDLLPSGVSDRFSGSKSGTSASLAISGLQSDDEADYYCAAWDARLNGWVFGGGTKLTVL"
5,binds,"EPOR/CD131 binder, HC SEQ ID NO 1700 / LC SEQ ID NO 1836 (antibody, V domains shown) VH: QITLKESGPTLVKPTQTLTLTCTFSGFSISTSGVGVGWIRQPPGKALEWLAFIFWNDDKRYSPSLKSRLTITKDTSKNQVVLTMTNMDPVDTATYYCTHTEYGSSWSVDYWGQGTLVTVSS VL: QAVLTQPASLSASPGASASLTCTLRSGINVGTSRIYWYQQKPGSPPQYLLRYKSDSDKHQDSGVPSRFSGSKDASANAGILLISGLQSEDEADYYCMIWHSSAVVFGGGTKLTVL"
6,binds,"EPOR/CD131 binder, HC SEQ ID NO 1701 / LC SEQ ID NO 1837 (antibody, V domains shown) VH: EVQLVESGGGVVRPGGSLRLSCAASGFTFDDYGMSWVRQAPGKGLEWVSGINWNGGSTGYADSVKGRFTISRDNAKNSLYLQMNSLRAEDTALYYCARHFDWLLSNAFDIWGQGTMVTVSS VL: QAVLTQPASLSASPGASASLTCTLRSGINVGTYRIYWYQQKPGSPPQYLLRYKSDSDKQQGSGVPSRFSGSKDASANAGILLISGLQSEDEADYYCMIWHSSASVVFGGGTKLTVL"
7,binds,"EPOR/CD131 binder, HC SEQ ID NO 1668 / LC SEQ ID NO 1804 (antibody, V domains shown) VH: QVQLQESGPGLVKPSGTLSLTCAISGGSISSSNWWSWVRQPPGKGLEWIGEIYHSGSTNFNPSLKSRVTISVDKSKNQFSLHLSSVTAADTAVYYCARDVGVDGRGFDYWGQGIVVIVSS VL: SYELTQPPSVSVSPGQTANITCSGDKLENKYTCWYQQKPGQSPLVVIYQDNKRPSGIPERFSGSNSGNTATLTISGTQAMDEADYYCQAWDSTTAWVFGGGTKLTVL"
8,binds,"EPOR/CD131 binder, HC SEQ ID NO 1670 / LC SEQ ID NO 1806 (antibody, V domains shown) VH: EVQLVESGGGLVQPGGSLRLSCAASGFTFSGYWMTWVRQAPGKGLEWVANIKHDGSEKYYVDSVKGRFTISRDNAQNSLYLQMNSLRAEDTAVYYCARKQLWLNWYFDFWGRGILVTVSS VL: SSELTQDPAVSVALGQTVRITCQGDSLRRYYASWYQQKPGQAPVLVIYGKDNRPSGIPDRFSGSSSGNTASLTITGTQAEDEADYYCNSRDSSGNHLVFGGGTKLTVL"
9,binds,"EPOR/CD131 binder, HC SEQ ID NO 1688 / LC SEQ ID NO 1824 (antibody, V domains shown) VH: EVQLVESGGGLVKPGGSLRLSCAASGFTFSSYSMNWVRQAPGKGLEWVSSISSSSSYIYYADSVKGRFTISRDNAKNSLYLQMNSLRAEDTAVYYCARDRYNWNYRYFDLWGRGTLVTVSS VL: SSELTQDPAVSVALGQTVRITCQGDSLRSYYASWYQQKPGQAPVLVIYGKNNRPSGIPDRFSGSSSGNTASLTITGAQAEDEADYYCNSRDSSGNHLVFGGGTKLTVL"
10,binds,"EPOR/CD131 binder, HC SEQ ID NO 1694 / LC SEQ ID NO 1830 (antibody, V domains shown) VH: QVQLQQSGPGLVKPSQTLSLTCAISGDNVSSNSAAWNWIRQSPSRGLEWLGRTYYRSKWYNDYAVSVKSRITINPDTSKNQFSLHLNSVTPEDTALYYCARDWNFAFDIWGQGTMVTVSS VL: SSELTQDPAVSVALGQTVRITCQGDSLRSYYASWYQQKPGQAPVLVIYGKNNRPSGIPDRFSGSSSGNTASLTITGAQAEDEADYYCNSRDSSGNHLVFGGGTKLTVL"
11,binds,"EPOR/CD131 binder, HC SEQ ID NO 1693 / LC SEQ ID NO 1829 (antibody, V domains shown) VH: EVQLVESGGGLVQPGGSLRLSCAASGFTFSSYWMHWVRQAPGKGLVWVSRVNSDGSNTTYADSVKGRFTISRDNAKNTLYLQMNSLRAEDTAVYYCARNRDYHGSGSFDYWGQGTLVTVSS VL: SSELTQDPAVSVALGQTVRITCQGDSLRSYYASWYQQKPGQAPVLVIYGQNNRPSGIPDRFSGSSSGNTASLTITGAQAEDEADYYCNSRDSSGNHWVFGGGTKLTVL"
12,binds,"EPOR/CD131 binder, HC SEQ ID NO 1671 / LC SEQ ID NO 1807 (antibody, V domains shown) VH: QVQLVQSGAEVKKPGASVKVSCKASGYTFTTYGISWVRQAPGQGLEWMGWISAFNGNTNYAQNLQGRVTMTTDTSTSTAYMELRSLRSDDTAVYYCARENNWNYGWFDPWGQGTLVTVSS VL: SSELTQDPAVSVALGQTVRITCQGDSLRSYYASWYQQKPGQAPVLVIYGKNNRPSGIPDRFSGSSSGNTASLTITGAQAEDEADYYCNSRDSSGNHYVFGTGTKVTVL"
13,binds,"EPOR/CD131 binder, HC SEQ ID NO 1686 / LC SEQ ID NO 1822 (antibody, V domains shown) VH: QVQLQESGPGLVKPSETLSLTCTVSGGSISDYYWNWIRQPPGKGLEWIGYISSRGRTNYNPSLKSRVTLSVDSSKNQFSLKLTSVTAADTAVFYCARGRHFDWLLSYFDYWGQGTLVTVSS VL: SSELTQDPAVSVALGQTVRITCQGDSLRSYYASWYQQKPGQAPVLVIYGKNNRPSGIPDRFSGSSSGNTASLTITGAQAEDEADYYCNSRDSSGNHYVFGTGTKVTVL"
14,binds,"EPOR/CD131 binder, HC SEQ ID NO 1690 / LC SEQ ID NO 1826 (antibody, V domains shown) VH: QVQLVQSGAEVKKPGASVKVSCKASGYTFTSYGISWVRQAPGQGLEWMGWISAYNGNTNYAQKLQGRVTMTTDTSTSTAYMELRSLRSDDTAVYYCARDGAARPPRYMDVWGKGTTVTVSS VL: SSELTQDPAVSVALGQTVRITCQGDSLRSYYASWYQQKPGQAPVLVIYGKNNRPSGIPDRFSGSSSGNTASLTITGAQAEDEADYYCNSRDSSGNHLVFGGGTKLTVL"
15,binds,"EPOR/CD131 binder, HC SEQ ID NO 1692 / LC SEQ ID NO 1828 (antibody, V domains shown) VH: QVQLVQSGSEVKKPGASVKVSCKASGYTFTGYYMYWVRQAPGQGLEWMGWINPNSGGTNYAQKFQDRVTMTRDTSISTAYMELSRLRSDDTAIYYCARDLDYYGSGNYDYWGQGTLVTVSS VL: SSELTQDPAVSVALGQTVRITCQGDSLRSYYASWYQQKPGQAPVLVIYGKNNRPSGIPDRFSGSSSGNTASLTITGAQAEDEADYYCNSRDSSDNHRVFGGGTKLTVL"
16,binds,"EPOR/CD131 binder, HC SEQ ID NO 1697 / LC SEQ ID NO 1833 (antibody, V domains shown) VH: EVQLVESGGGLVKPGGSLRLSCAASGFTFSRYSMNWVRQAPGKGLEWVSSIISSTSYIYYADSVKGRFTISRDNAKNSLYLQMNSLRAEDTAVYYCARETPVTLFDAFDIWGQGTMVTVSS VL: QSVLTQPPSVSGAPGQRVTISCTGSSSNIGARYDVHWYQLLPGSAPKLLIYDNSDRPSGVPDRFSGSRSGTSASLAITGLQAEDEADYFCQSYDSSLSGSVFGGGTKLTVL"
17,binds,"EPOR/CD131 binder, HC SEQ ID NO 1698 / LC SEQ ID NO 1834 (antibody, V domains shown) VH: EVHLVESGGGLVQPGRSLRLSCAASGFTFDEYAMHWVRQVPGKGLEWVSGISWNSGSIGYADSVKGRFTISRDNAKNSLYLQMNSLRAEDTALYYCAKDIFTGRAGYFDYWGQGTLVTVSS VL: QSVLTQPPSVSGAPGQRVTISCTGSSSNIGAGYDVHWYQQLPGTAPKLLIYGNSNRPSGVPDRFSGSKSGTSASLAITGLQAEDEADYYCQSYDSSLSGWVFGGGTKLTVL"
18,binds,"EPOR/CD131 binder, HC SEQ ID NO 1702 / LC SEQ ID NO 1838 (antibody, V domains shown) VH: QVQLVQSGAEVKKPGASVKVSCKASGYTFTSYDINWVRQATGQGLEWMGWMNPNSGNTGYAQKFQGRVTMTRNTSISTAYMELSSLRSEDTAVYYCVRRITVVRGVISLDYWGQGTLVTVSS VL: SYELTQPPSVSVSPGQTAIITCSGAKLGDKYACWYQKKPGQSPVMVIYQDRKRPSGIPERFSGSNSGNTATLTISGTQAMDEADYYCQAWDSSTAVFGGGTKLTVL"
19,binds,"EPOR/CD131 binder, HC SEQ ID NO 1683 / LC SEQ ID NO 1819 (antibody, V domains shown) VH: EVHLVESGGGLVQPGGSLRLSCAASGFTFSGYWMSWVRQAPGKGLEWVANIKQDGSDKYYVDSVKGRFTISRDNAINSLFLQLTSLRAEDTAVYYCAREIDWNYGFHFDYWGQGTLITVSS VL: SYELTQPPSVSVSPGQTARITCSGDALPQKYAFWYQQKSGQAPVLVIYEDSERPSGIPERFSGSTSGTMATLTISGAQVEDEADYYCFSTDSSGNKVFGGGTKLTVL"
20,binds,"EPOR/CD131 binder, HC SEQ ID NO 1684 / LC SEQ ID NO 1820 (antibody, V domains shown) VH: QVQLVQSGAEVKKPGASVKVSCKASGYTFTSYDINWVRQATGQGLEWMGWMNPNSGNTGYAQKFQGRVTMTRNTSISTAYMELSSLRSEDTAVYYCARGYYDFWSGPFDYWGQGTLVTVSS VL: SYELTQPPSVSVSPGQTARITCSGDALPKKYAYWYQQKSGQAPVLVIYEDSKRPSGIPERFSGSSSGTMATLTISGAQVEDEADYYCYSTDSSGNRVFGGGTKLTVL"
21,binds,"EPOR/CD131 binder, HC SEQ ID NO 1669 / LC SEQ ID NO 1805 (antibody, V domains shown) VH: EVQLVESGGGLVQPGGSLRLSCGVSGFTFSIYWMSWVRQAPGKGLEWVANINLDGSEKYHVDSVKGRFTISRDNAKNSLFLQMTSLRAEDTAVYYCARDILWSGGYLDVWGKGTTVTVSS VL: SSELTQDPAVSVALGQTVRITCQGDNIRNYYASWYQQKPGQAPLLVISGKNNRPSGIPDRFSGSSSGNTASLTITGAQAEDEAYYYCYSRDSSGSLWIFGGGTKLTVL"
22,binds,"EPOR/CD131 binder, HC SEQ ID NO 1687 / LC SEQ ID NO 1823 (antibody, V domains shown) VH: EVQLVESGGGLVKPGGSLRLSCAASGFTFSSDNMNWVRQAPGKGLEWVSSIGSSSSYIYYADSVKGRFTISRDNAKNSLYLQMNSLRAEDTAVYYCARDRAIVGATWFDPWGQGTLVIVSS VL: SSELTQDPAVSVALGQTVRITCQGDSLRNYYASWYQQKPGQAPILVIYGKNNRPSGIPDRFSGSSSGNTASLTITGAQAEDEADYYCNSRDSSYNHWVFGGGTKLTVL"
